In this test the target is human recombinant insulin (human). In words: ELISA; polyreactivity ELISA; plates coated with 5 μg ml^−1 human recombinant insulin in 0.05 M carbonate-bicarbonate buffer overnight at room temperature, blocked with 2% BSA; antibodies at 4 μg ml^−1 followed by three serial dilutions (1:4), 1 hour at room temperature; detection with anti-human IgG HRP, OD 450 nm; both purified.

Results are given in words; binding and its absence hold for the method and conditions named. Binding can be weak; no strength is given.

B1: RA32 antibody (antibody, V domains shown)
VH: QVQLRQPGIELAKSGTSVKLSCKASGFTFTSYWMHWVRQRPGQGLEWIGHINPNKDGINFNERFKTKATLTVDRSSATAFMQLSSLTSADSAVYYCARWGPGYFDYWGQGTTLTVSS
VL: DLVLTQSPASVAVSPGQRATISCRVSESIDNFGISFMNWFQQKPGQPPKLLIYFASKQGSGVPARFTGSGSGTNFSLNIHPMEEDDTAMYFCQQSKEVPYTFGGGTKLEIK
Turning to B1, the binding entry is listed as “binds”.

B2: AT5 antibody (antibody, V domains shown)
VH: QVQLQQPGAELVKPGASLKLSCQASGYIFTSYWLHWVKQRPGQGLEWIGMILPNSGSTYYNEEFKTKAALTVDKSSSTAYMQLTSLTSEDSAVYYCARSTTVVASPYVMDYWGQGTSVTVSS
VL: DIVLTQSPATLSVTPGDSVSLSCRASQNISNNLHWCQQKSHESPRLLIKYASQSISGIPSRFSGSGSGADFTLSLNSVETEDFGMYFCQQTNSWPLTFGAGTKLELK
As for B2, the binding result was “no binding (tested: 4 μg ml^−1)”.

These data come from paper PMC13561875.
